Measured values: the supplement of paper PMC6411743
± gives the standard deviation of the averaged measurements. Only a part is listed here, and it is no random draw.

Protein sequences, listed by entry. Tags and fused reporters are not part of them. Lines headed by an entry give the natural chain unless they say otherwise; changes in a name come on top.
UniProt O95873: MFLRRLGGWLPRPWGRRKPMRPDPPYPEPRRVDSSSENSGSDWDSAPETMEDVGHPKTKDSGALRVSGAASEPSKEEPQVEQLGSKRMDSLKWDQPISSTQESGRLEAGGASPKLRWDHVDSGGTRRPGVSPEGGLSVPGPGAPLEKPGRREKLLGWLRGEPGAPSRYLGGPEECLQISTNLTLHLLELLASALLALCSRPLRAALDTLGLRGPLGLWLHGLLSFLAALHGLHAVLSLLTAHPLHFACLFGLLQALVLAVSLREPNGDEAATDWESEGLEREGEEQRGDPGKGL
UniProt P09914: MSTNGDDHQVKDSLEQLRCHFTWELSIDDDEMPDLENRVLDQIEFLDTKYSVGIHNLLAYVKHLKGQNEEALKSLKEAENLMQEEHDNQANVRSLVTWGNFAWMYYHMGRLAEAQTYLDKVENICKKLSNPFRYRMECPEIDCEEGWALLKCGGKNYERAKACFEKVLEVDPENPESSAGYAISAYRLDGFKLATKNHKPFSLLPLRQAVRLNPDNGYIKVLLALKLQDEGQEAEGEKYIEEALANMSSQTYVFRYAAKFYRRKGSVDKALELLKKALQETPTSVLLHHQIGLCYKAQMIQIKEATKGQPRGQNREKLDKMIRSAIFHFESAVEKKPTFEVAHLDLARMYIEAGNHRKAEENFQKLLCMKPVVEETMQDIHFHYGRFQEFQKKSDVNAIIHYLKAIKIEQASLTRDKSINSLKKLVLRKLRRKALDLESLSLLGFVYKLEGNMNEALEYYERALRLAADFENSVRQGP
UniProt P15927: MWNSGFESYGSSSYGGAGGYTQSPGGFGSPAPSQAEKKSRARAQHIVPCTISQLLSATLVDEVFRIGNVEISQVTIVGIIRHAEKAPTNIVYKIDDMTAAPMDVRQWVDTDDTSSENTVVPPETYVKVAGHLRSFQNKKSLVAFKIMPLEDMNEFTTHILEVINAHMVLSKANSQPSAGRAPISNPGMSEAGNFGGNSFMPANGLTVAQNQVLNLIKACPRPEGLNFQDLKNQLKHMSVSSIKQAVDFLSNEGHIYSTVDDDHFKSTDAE
UniProt P00491: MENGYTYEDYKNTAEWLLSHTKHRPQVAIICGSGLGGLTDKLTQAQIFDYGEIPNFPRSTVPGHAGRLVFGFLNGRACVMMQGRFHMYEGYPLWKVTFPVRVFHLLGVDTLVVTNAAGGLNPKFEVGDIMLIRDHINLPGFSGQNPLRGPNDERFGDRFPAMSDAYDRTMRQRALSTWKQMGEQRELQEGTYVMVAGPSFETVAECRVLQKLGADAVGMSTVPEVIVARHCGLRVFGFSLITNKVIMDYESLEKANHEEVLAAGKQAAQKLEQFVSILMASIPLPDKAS
UniProt P14209: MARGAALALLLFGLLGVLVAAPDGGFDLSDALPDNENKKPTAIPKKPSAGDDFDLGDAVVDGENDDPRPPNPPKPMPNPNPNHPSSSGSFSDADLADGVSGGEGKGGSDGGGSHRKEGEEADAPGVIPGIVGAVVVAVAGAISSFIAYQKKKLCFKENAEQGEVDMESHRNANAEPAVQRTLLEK
UniProt P11021: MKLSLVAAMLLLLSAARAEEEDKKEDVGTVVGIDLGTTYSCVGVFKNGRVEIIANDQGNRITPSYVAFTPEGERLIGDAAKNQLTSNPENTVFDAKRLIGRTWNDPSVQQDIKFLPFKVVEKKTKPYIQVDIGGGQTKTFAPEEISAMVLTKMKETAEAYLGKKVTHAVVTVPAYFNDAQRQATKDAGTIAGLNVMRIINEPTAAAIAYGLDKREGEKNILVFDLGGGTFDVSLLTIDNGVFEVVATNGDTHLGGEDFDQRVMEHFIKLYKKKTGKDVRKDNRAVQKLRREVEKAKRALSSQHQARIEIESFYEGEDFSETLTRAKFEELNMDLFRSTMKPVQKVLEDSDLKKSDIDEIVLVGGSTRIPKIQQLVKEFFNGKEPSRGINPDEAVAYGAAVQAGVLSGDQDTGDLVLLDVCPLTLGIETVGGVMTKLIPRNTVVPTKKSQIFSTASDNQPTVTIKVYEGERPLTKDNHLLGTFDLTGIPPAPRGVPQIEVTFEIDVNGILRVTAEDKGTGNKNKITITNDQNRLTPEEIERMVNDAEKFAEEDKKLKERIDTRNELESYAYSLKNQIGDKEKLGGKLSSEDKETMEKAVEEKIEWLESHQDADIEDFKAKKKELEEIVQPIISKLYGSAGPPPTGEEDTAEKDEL
UniProt P14866: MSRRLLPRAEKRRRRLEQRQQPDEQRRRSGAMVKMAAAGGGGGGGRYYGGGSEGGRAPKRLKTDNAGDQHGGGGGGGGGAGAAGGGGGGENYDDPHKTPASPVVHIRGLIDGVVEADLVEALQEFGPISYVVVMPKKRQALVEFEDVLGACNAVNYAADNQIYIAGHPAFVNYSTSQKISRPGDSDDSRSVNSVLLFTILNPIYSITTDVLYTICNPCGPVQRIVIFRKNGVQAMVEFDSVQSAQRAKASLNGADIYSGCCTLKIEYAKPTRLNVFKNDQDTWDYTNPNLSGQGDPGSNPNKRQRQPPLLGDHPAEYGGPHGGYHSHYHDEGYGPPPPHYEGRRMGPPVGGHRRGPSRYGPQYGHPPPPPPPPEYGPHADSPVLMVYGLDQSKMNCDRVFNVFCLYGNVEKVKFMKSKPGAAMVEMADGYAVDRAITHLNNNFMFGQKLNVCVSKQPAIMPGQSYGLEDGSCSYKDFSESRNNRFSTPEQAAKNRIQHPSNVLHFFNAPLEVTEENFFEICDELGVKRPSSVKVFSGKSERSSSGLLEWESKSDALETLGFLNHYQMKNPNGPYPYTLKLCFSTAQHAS
UniProt P08236: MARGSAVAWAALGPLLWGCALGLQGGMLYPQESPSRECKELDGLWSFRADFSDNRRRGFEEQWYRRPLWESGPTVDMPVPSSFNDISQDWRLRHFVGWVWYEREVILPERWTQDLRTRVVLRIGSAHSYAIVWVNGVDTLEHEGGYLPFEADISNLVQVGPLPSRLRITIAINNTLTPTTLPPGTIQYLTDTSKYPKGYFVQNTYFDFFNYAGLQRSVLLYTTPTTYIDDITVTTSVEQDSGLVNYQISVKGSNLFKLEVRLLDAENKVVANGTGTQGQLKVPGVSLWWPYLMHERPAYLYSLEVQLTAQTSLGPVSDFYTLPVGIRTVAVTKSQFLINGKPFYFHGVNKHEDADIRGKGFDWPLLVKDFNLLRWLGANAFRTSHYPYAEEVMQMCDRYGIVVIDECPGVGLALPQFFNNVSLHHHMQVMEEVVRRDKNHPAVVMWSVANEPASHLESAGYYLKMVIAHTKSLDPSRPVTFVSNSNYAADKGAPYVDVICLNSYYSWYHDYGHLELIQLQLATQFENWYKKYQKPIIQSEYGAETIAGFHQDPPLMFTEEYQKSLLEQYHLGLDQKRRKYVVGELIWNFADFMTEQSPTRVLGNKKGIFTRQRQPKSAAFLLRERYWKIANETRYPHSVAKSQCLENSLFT
UniProt P04818: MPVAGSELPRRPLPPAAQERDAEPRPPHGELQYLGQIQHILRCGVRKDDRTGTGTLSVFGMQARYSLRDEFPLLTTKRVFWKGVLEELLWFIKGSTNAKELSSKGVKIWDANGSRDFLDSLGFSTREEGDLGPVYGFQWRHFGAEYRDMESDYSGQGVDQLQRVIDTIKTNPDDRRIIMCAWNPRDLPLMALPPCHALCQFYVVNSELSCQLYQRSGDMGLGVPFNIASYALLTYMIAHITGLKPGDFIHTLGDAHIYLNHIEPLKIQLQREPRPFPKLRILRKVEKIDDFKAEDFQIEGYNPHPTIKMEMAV
UniProt P16435: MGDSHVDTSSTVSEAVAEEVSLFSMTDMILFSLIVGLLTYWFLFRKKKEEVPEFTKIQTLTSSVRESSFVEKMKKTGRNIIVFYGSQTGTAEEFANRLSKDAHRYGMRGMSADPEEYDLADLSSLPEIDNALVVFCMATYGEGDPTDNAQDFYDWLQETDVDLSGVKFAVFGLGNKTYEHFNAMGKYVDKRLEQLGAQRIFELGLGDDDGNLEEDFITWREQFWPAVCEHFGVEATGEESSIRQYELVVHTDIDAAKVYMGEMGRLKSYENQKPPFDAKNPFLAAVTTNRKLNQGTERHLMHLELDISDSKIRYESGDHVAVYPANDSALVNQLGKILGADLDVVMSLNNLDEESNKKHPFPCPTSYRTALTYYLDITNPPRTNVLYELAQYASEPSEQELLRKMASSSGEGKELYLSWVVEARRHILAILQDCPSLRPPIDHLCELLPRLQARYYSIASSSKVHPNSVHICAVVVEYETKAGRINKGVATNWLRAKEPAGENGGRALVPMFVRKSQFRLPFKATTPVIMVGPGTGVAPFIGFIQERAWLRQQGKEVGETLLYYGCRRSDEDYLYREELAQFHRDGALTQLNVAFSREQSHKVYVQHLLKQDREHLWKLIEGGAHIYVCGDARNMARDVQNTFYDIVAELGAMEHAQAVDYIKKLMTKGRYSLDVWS
UniProt P14316: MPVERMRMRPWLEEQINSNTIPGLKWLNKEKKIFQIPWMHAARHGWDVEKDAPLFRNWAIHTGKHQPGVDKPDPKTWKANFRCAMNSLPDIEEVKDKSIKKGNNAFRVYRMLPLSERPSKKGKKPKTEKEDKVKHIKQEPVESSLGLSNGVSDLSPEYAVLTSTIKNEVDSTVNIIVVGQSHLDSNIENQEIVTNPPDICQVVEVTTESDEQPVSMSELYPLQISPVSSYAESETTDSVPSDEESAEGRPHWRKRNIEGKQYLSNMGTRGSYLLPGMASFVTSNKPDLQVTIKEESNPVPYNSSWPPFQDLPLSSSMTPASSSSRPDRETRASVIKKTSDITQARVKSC
UniProt P12544: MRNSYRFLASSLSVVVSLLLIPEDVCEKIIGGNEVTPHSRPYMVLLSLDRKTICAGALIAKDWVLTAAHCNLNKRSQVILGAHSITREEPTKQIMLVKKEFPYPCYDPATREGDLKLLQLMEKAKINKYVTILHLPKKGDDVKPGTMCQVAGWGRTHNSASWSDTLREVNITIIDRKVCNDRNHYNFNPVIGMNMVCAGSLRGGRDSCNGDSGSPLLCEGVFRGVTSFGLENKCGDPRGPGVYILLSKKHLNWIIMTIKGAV
UniProt P09874, whole entry: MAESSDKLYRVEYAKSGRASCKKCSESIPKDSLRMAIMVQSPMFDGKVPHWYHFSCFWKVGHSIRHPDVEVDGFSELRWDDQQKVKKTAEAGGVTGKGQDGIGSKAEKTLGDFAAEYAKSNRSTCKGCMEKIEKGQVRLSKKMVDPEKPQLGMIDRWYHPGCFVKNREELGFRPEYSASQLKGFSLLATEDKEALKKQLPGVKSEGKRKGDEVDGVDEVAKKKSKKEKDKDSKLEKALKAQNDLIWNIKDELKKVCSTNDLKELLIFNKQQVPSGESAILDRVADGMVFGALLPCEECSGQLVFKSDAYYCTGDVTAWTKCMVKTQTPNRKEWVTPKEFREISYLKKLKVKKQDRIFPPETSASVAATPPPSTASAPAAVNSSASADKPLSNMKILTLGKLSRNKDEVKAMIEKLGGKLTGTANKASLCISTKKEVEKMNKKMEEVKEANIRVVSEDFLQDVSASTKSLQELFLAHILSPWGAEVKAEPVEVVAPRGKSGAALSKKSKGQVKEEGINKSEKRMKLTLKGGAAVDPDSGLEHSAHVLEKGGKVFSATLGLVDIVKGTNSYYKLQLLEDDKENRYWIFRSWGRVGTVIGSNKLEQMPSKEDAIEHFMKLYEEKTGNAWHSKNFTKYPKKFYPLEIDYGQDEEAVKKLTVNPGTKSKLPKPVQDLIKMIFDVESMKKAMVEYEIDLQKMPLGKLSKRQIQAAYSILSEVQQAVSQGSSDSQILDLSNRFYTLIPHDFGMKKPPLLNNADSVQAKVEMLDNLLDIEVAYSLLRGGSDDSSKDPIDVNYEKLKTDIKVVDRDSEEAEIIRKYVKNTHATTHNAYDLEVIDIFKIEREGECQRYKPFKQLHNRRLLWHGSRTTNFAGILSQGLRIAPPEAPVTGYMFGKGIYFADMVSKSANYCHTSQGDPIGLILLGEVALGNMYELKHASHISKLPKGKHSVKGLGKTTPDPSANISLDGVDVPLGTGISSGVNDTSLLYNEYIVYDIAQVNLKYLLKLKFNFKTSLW
UniProt Q71UI9, whole entry, looked up: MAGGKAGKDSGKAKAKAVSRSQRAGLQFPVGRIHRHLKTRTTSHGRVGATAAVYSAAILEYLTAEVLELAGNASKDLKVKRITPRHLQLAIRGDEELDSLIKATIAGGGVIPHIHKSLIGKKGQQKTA
UniProt P15813: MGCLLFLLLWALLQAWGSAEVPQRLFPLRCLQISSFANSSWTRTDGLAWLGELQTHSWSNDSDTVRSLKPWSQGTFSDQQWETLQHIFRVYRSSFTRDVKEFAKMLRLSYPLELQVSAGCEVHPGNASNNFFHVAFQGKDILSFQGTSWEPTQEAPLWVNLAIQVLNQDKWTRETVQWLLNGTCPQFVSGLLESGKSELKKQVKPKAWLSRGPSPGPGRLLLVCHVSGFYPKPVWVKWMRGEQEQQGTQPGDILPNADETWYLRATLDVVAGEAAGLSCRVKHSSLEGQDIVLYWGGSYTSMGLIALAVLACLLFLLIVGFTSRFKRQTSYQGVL

Compound: Nc1ncnc2c1ncn2[C@@H]1O[C@H](COP(=O)(O)OP(=O)(O)OP(=O)(O)O)[C@@H](O)[C@H]1O [adenosine triphosphate]
Assay: NP40-soluble protein abundance relative to vehicle (solubility fold change) (ratio); higher = more soluble protein in presence of ATP
Procedure, shortened: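 Eight concentrations, 0.1 to 10 mM, were tested on Jurkat crude lysate for 10 min at room temperature and then 3 min at 37 °C, in three independent experiments. The lysate was solubilised with 0.8% NP40 and benzonase, ultracentrifuged, and the supernatant TMT-labelled for LC-MS/MS. Each value is the fold change against the detergent-processed vehicle in its own replicate, from vsn-normalised intensities.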

Target	NP40-soluble protein abundance (concentration: 1mM)	NP40-soluble protein abundance (concentration: 2mM)	NP40-soluble protein abundance (concentration: 4mM)	NP40-soluble protein abundance (concentration: 6mM)	NP40-soluble protein abundance (concentration: 8mM)	NP40-soluble protein abundance (concentration: 10mM)
HIST1H1D (UniProt P16402)	1.07 ± 0.18	1.02 ± 0.048	1.1 ± 0.074	1.17 ± 0.083	1.22 ± 0.099	1.4 ± 0.19
C6orf47 (UniProt O95873)	0.909 ± 0.026	0.876 ± 0.088	0.912 ± 0.029	0.918 ± 0.066	0.891 ± 0.021	0.92 ± 0.078
UniProt P09914 and related entries	1.08 ± 0.078	1.11 ± 0.12	1.03 ± 0.18	1.07 ± 0.2	1.06 ± 0.17	1.12 ± 0.069
HIST1H1E (UniProt P10412)	1.14 ± 0.19	1.08 ± 0.068	1.18 ± 0.1	1.33 ± 0.11	1.26 ± 0.095	1.61 ± 0.22
UniProt P15923-2|X6REB3 and related entries	0.91 ± 0.021	0.917 ± 0.031	0.9 ± 0.032	0.921 ± 0.039	0.8683 ± 0.0084	0.871 ± 0.044
RPA2 (UniProt P15927)	0.98 ± 0.021	0.9817 ± 0.002	0.945 ± 0.033	1.006 ± 0.0043	0.942 ± 0.033	0.944 ± 0.039
UniProt P00491	0.968 ± 0.12	0.976 ± 0.099	0.959 ± 0.065	0.872 ± 0.16	0.961 ± 0.058	0.974 ± 0.065
UniProt P14209 and related entries	0.912 ± 0.2	0.932 ± 0.16	0.996 ± 0.077	1.05 ± 0.19	0.843 ± 0.12	0.97 ± 0.11
ALAS1 (UniProt P13196)	1 ± 0.068	1.04 ± 0.045	1.09 ± 0.082	1.07 ± 0.084	1.06 ± 0.034	1.05 ± 0.036
RB1 (UniProt P06400)	0.987 ± 0.012	0.993 ± 0.029	0.958 ± 0.018	0.98 ± 0.026	0.966 ± 0.028	0.981 ± 0.048
PLEK (UniProt P08567)	1.05 ± 0.041	1.05 ± 0.049	0.94 ± 0.036	0.991 ± 0.12	1.04 ± 0.075	1.05 ± 0.058
HSPA5 (UniProt P11021)	0.949 ± 0.06	0.903 ± 0.044	0.872 ± 0.02	0.953 ± 0.033	0.906 ± 0.021	0.901 ± 0.021
HNRNPL (UniProt P14866)	1.1 ± 0.05	1.12 ± 0.044	1.18 ± 0.06	1.28 ± 0.079	1.3 ± 0.062	1.35 ± 0.11
UniProt P08236 and related entries	1.02 ± 0.1	0.994 ± 0.035	0.957 ± 0.034	0.9263 ± 0.0086	0.965 ± 0.036	0.979 ± 0.024
UniProt P09543-2	1.12 ± 0.036	1.13 ± 0.039	1.1 ± 0.023	1.09 ± 0.076	1.13 ± 0.044	1.11 ± 0.047
RPN1 (UniProt P04843)	1.01 ± 0.04	0.97 ± 0.021	0.9282 ± 0.005	0.97 ± 0.039	0.967 ± 0.022	0.943 ± 0.038
CAT (UniProt P04040)	0.996 ± 0.044	0.964 ± 0.023	0.956 ± 0.045	0.961 ± 0.022	0.97 ± 0.028	0.946 ± 0.021
ALAD (UniProt P13716)	0.993 ± 0.041	1.01 ± 0.024	0.982 ± 0.043	0.994 ± 0.078	0.963 ± 0.027	0.978 ± 0.039

An excerpt of these results, field by field.
HIST1H1D (UniProt P16402)
  NP40-soluble protein abundance (concentration: 1mM): 1.07 ± 0.18
  NP40-soluble protein abundance (concentration: 2mM): 1.02 ± 0.048
  NP40-soluble protein abundance (concentration: 4mM): 1.1 ± 0.074
  NP40-soluble protein abundance (concentration: 6mM): 1.17 ± 0.083
  NP40-soluble protein abundance (concentration: 8mM): 1.22 ± 0.099
  NP40-soluble protein abundance (concentration: 10mM): 1.4 ± 0.19
C6orf47 (UniProt O95873)
  NP40-soluble protein abundance (concentration: 1mM): 0.909 ± 0.026
  NP40-soluble protein abundance (concentration: 2mM): 0.876 ± 0.088
  NP40-soluble protein abundance (concentration: 4mM): 0.912 ± 0.029
  NP40-soluble protein abundance (concentration: 6mM): 0.918 ± 0.066
  NP40-soluble protein abundance (concentration: 8mM): 0.891 ± 0.021
  NP40-soluble protein abundance (concentration: 10mM): 0.92 ± 0.078

(listing goes on)

Target	NP40-soluble protein abundance (concentration: 1mM)	NP40-soluble protein abundance (concentration: 2mM)	NP40-soluble protein abundance (concentration: 4mM)	NP40-soluble protein abundance (concentration: 6mM)	NP40-soluble protein abundance (concentration: 8mM)	NP40-soluble protein abundance (concentration: 10mM)
TYMS (UniProt P04818)	0.96 ± 0.069	0.948 ± 0.068	0.937 ± 0.045	0.882 ± 0.078	0.962 ± 0.053	0.937 ± 0.063
UniProt P14859-5|P14859-6	0.829 ± 0.08	0.859 ± 0.03	0.874 ± 0.022	0.96 ± 0.058	0.892 ± 0.034	0.879 ± 0.056
POR (UniProt P16435)	1.05 ± 0.043	1.03 ± 0.04	1.01 ± 0.026	0.998 ± 0.07	1.02 ± 0.063	1 ± 0.041
UniProt P14316 and related entries	0.954 ± 0.019	0.952 ± 0.06	0.916 ± 0.037	0.984 ± 0.058	0.945 ± 0.048	0.919 ± 0.013
UniProt P01733	1.06 ± 0.038	0.966 ± 0.083	1.1 ± 0.045	0.964 ± 0.049	1 ± 0.056	0.936 ± 0.03
UniProt P12544 and related entries	1.07 ± 0.25	1.08 ± 0.064	1.21 ± 0.21	1.15 ± 0.12	1.29 ± 0.19	1.24 ± 0.061
UniProt P04150 and related entries	1 ± 0.061	0.926 ± 0.12	0.881 ± 0.13	0.89 ± 0.13	0.872 ± 0.21	0.805 ± 0.16
ITGA4 (UniProt P13612)	0.935 ± 0.021	0.952 ± 0.016	0.925 ± 0.025	0.935 ± 0.025	0.902 ± 0.027	0.91 ± 0.0094
GNAI3 (UniProt P08754)	0.982 ± 0.067	0.991 ± 0.038	0.951 ± 0.024	0.865 ± 0.12	0.955 ± 0.048	1.01 ± 0.055
UniProt P16298 and related entries	0.947 ± 0.036	0.94 ± 0.012	0.929 ± 0.0096	0.984 ± 0.094	0.915 ± 0.059	0.928 ± 0.012
UniProt P11310 and related entries	0.953 ± 0.0033	0.946 ± 0.027	0.931 ± 0.03	0.959 ± 0.045	0.933 ± 0.012	0.925 ± 0.043
PARP1 (UniProt P09874)	1.09 ± 0.06	1.13 ± 0.041	1.21 ± 0.065	1.34 ± 0.082	1.47 ± 0.094	1.54 ± 0.052
ENO2 (UniProt P09104)	1.02 ± 0.041	0.994 ± 0.061	0.971 ± 0.049	0.972 ± 0.092	0.979 ± 0.058	0.96 ± 0.074
P0C0S5 and related entries (UniProt Q71UI9+P0C0S5)	0.966 ± 0.096	0.942 ± 0.078	0.971 ± 0.094	1 ± 0.042	1.02 ± 0.081	1.07 ± 0.17
PEPD (UniProt P12955)	1.04 ± 0.11	1.02 ± 0.083	0.999 ± 0.066	0.955 ± 0.1	1 ± 0.064	0.963 ± 0.047
UniProt P15813	0.866 ± 0.011	0.916 ± 0.023	0.917 ± 0.054	0.851 ± 0.083	0.823 ± 0.018	0.911 ± 0.035
UniProt O95834-2|O95834-3|O95834	1.02 ± 0.099	0.992 ± 0.088	0.982 ± 0.083	0.963 ± 0.11	1.03 ± 0.092	0.994 ± 0.067
